# Reference: PubChem BioAssay AID248 (DTP/NCI, 2004)
# The list shows only some results of the screen, not a fair sample: it gathers tests that were run many times, whatever their T/C, doses with no T/C, and many T/C values between a quarter and a half above the control. Other doses and runs of a compound stand elsewhere. T/C: endpoint of the treated group in % of that of the vehicle group. Some entries give survivors of the animals treated and no T/C: the source files T/C as zero there, which appears to mark a toxic dose or a test without result, not a measured value. Some survivor counts are full or nearly so, which does not show that the dose was tolerated: the source hardly ever lists a survival T/C far under the control, and the zero likely stands for such cases as well. Counts of survivors are from the toxicity check (mostly the fifth day) where no day follows; animals may have died later. Schedules are NCI's codes, taken here to give the interval after Q, in days (D) or hours (H), and the number of doses after X. Some entries hold several experiments; the results are listed from low to high. For survival time, this PubChem deposit counts one and a half times the control or more as active, and values a quarter to a half above the control carry no call in these data; other NCI protocols may use other cut-offs. Some T/C values are followed by the survivors on the day toxicity was checked, most often the fifth; without a count, all were alive then.
# System: L1210 leukemia ip in BDF1 mice, survival T/C
# Assay: NCI In Vivo Anticancer Drug Screen. Data for tumor model L1210 Leukemia (intraperitoneal) in B6D2F1 (BDF1) mice
# Details: T/C endpoint: mean survival time, higher T/C = longer survival
# [1] = dose: 400.0 mg/kg/injection, schedule: Q04DX002 (ip), vehicle: saline with Tween-80
# [2] = dose: 50.0 mg/kg/injection, schedule: Q01DX001 (ip), vehicle: saline
# [3] = dose: 200.0 mg/kg/injection, schedule: Q01DX001 (ip), vehicle: saline
# [4] = dose: 400.0 mg/kg/injection, schedule: Q01DX001 (ip), vehicle: saline
# [5] = dose: 100.0 mg/kg/injection, schedule: Q01DX001 (ip), vehicle: saline
# [6] = dose: 100.0 mg/kg/injection, schedule: Q01DX009 (ip), vehicle: saline with Tween-80
# [7] = dose: 200.0 mg/kg/injection, schedule: Q04DX003 (ip), vehicle: Klucel (hydroxypropylcellulose) (HPC)
# [8] = dose: 100.0 mg/kg/injection, schedule: Q04DX003 (ip), vehicle: Klucel (hydroxypropylcellulose) (HPC)
# [9] = dose: 400.0 mg/kg/injection, schedule: Q04DX003 (ip), vehicle: Klucel (hydroxypropylcellulose) (HPC)
# [10] = dose: 200.0 mg/kg/injection, schedule: Q01DX009 (ip), vehicle: Klucel (hydroxypropylcellulose) (HPC)
# [11] = dose: 400.0 mg/kg/injection, schedule: Q04DX003 (ip), vehicle: saline with Tween-80
structure (smiles),measurement,setting,value
CC(C)=CCCC(C)CCOC(N)=O (stereo not drawn),survivor count,[1],0 of 3
OCN(CO)c1ccc2c(c1)Cc1cc(F)ccc1-2,survivor count,"dose: 400.0 mg/kg/injection, schedule: Q04DX003 (ip), vehicle: acetone",1 of 6
O=C(O)C(Br)CBr (stereo not drawn),survivor count,[2],4 of 4
same,survivor count,[3],1 of 4
same,survivor count,[4],0 of 4
CCCCCCCCCCCCCCCC[N+]1(C)CCS(C)(OS(=O)(=O)OC)CC1 (stereo not drawn),survivor count,[5],0 of 3
same,survivor count,[3],0 of 3
same,survivor count,[4],0 of 3
CC(=O)Nc1ccc(/C=N/NC(=O)c2ccc(C)cc2)cc1,survivor count,[6],3 of 3
O=C(NC(=O)C(Cl)Cl)Nc1cccc2c1Cc1ccccc1-2,survivor count,[7],6 of 6
CC(C)=NNC(N)=O,survivor count,"dose: 100.0 mg/kg/injection, schedule: Q04DX002 (ip), vehicle: saline",1 of 3 and 2 of 3
same,survivor count,"dose: 200.0 mg/kg/injection, schedule: Q04DX002 (ip), vehicle: saline",0 of 3
same,survivor count,"dose: 400.0 mg/kg/injection, schedule: Q04DX002 (ip), vehicle: saline",0 of 3
COc1cccc2c1C(=O)c1c(O)c3c(c(O)c1C2=O)C[C@@](O)(/C(C)=N/NS(C)(=O)=O)C[C@@H]3OC1CC(N)C(O)C(C)O1 (stereo partly drawn),T/C,"dose: 32.0 mg/kg/injection, schedule: Q01DX009 (ip), vehicle: water",126 and 135 % of control [5 of 6 alive]
same,T/C,"dose: 32.0 mg/kg/injection, schedule: Q04DX003 (ip), vehicle: water",132 % of control
same,T/C,"dose: 64.0 mg/kg/injection, schedule: Q01DX009 (ip), vehicle: water",135 % of control
same,T/C,"dose: 64.0 mg/kg/injection, schedule: Q04DX003 (ip), vehicle: water",143 % of control
same,survivor count,"dose: 100.0 mg/kg/injection, schedule: Q01DX009 (ip), vehicle: water",5 of 6
same,survivor count,"dose: 128.0 mg/kg/injection, schedule: Q01DX009 (ip), vehicle: water",6 of 6
C[CH2][Sn]([CH2]C)([CH2]C)[O]c1ccccc1,survivor count,"dose: 6.25 mg/kg/injection, schedule: Q01DX009 (ip), vehicle: saline with Tween-80",1 of 3 and 2 of 3
same,survivor count,"dose: 12.5 mg/kg/injection, schedule: Q01DX009 (ip), vehicle: saline with Tween-80",0 of 3
same,survivor count,"dose: 25.0 mg/kg/injection, schedule: Q01DX009 (ip), vehicle: saline with Tween-80",0 of 3
same,survivor count,"dose: 50.0 mg/kg/injection, schedule: Q01DX009 (ip), vehicle: saline with Tween-80",0 of 3
same,survivor count,[6],0 of 3 and 0 of 6
same,survivor count,"dose: 200.0 mg/kg/injection, schedule: Q01DX009 (ip), vehicle: saline with Tween-80",0 of 6
same,survivor count,"dose: 400.0 mg/kg/injection, schedule: Q01DX009 (ip), vehicle: saline with Tween-80",0 of 6
S=C1NCc2ccccc2N1,survivor count,[8],1 of 6
same,survivor count,"dose: 200.0 mg/kg/injection, schedule: Q01DX001 (ip), vehicle: Klucel (hydroxypropylcellulose) (HPC)",0 of 3
same,survivor count,[7],0 of 6
same,survivor count,"dose: 400.0 mg/kg/injection, schedule: Q01DX001 (ip), vehicle: Klucel (hydroxypropylcellulose) (HPC)",0 of 3
same,survivor count,[9],0 of 6
NC(CSSc1ccccc1)=NCC12CC3CC(CC(C3)C1)C2,survivor count,"dose: 40.0 mg/kg/injection, schedule: Q01DX001 (ip), vehicle: carboxymethylcellulose (CMC)",0 of 6
same,survivor count,"dose: 75.0 mg/kg/injection, schedule: Q01DX001 (ip), vehicle: carboxymethylcellulose (CMC)",0 of 6
same,survivor count,"dose: 150.0 mg/kg/injection, schedule: Q01DX001 (ip), vehicle: carboxymethylcellulose (CMC)",0 of 6
same,survivor count,"dose: 300.0 mg/kg/injection, schedule: Q01DX001 (ip), vehicle: carboxymethylcellulose (CMC)",0 of 6
O=C(O)c1ccc(CO)o1,survivor count,[10],4 of 6
O=C(O)c1c(Br)c(Br)c(Br)c(Br)c1-c1c2ccc(=O)c(O)c-2oc2c(O)c(O)ccc12,survivor count,"dose: 200.0 mg/kg/injection, schedule: Q04DX003 (ip), vehicle: saline",6 of 6
same,survivor count,"dose: 400.0 mg/kg/injection, schedule: Q04DX003 (ip), vehicle: saline",3 of 6
C[N+](C)(C)CCC[N+]1(C)CC2C3CCCCC3=C3CCCCC3C2C1 (stereo not drawn),survivor count,"dose: 40.0 mg/kg/injection, schedule: Q01DX001 (ip), vehicle: saline",1 of 4
same,survivor count,[2],0 of 4
same,survivor count,"dose: 80.0 mg/kg/injection, schedule: Q01DX001 (ip), vehicle: saline",0 of 4
same,survivor count,[5],0 of 4
same,survivor count,[3],0 of 4
same,survivor count,[4],0 of 4
CN(C)/N=C/C=C/c1ccccc1,survivor count,[10],0 of 6
same,survivor count,"dose: 400.0 mg/kg/injection, schedule: Q01DX009 (ip), vehicle: saline",0 of 6
same,survivor count,[9],5 of 6
CC(C)(c1ccccc1)C(C)(C)c1ccccc1,survivor count,[10],6 of 6
CC(=O)NC(c1ccccc1)C(C)C (stereo not drawn),survivor count,"dose: 400.0 mg/kg/injection, schedule: Q01DX001 (ip), vehicle: saline with Tween-80",0 of 3
CC(=O)Nc1cccc2c(C)ccnc12,survivor count,[8],0 of 6
same,survivor count,[7],0 of 6
same,survivor count,[9],0 of 6
C=C1C(=O)OC2C1C(OC(=O)/C(=C/C)COC(C)=O)CC1(CO1)C1C(OC(=O)/C(=C/C)CO)C3OC3(C)C21 (stereo not drawn),survivor count,"dose: 12.5 mg/kg/injection, schedule: Q01DX009 (ip), vehicle: alcohol",1 of 6
same,survivor count,"dose: 25.0 mg/kg/injection, schedule: Q01DX009 (ip), vehicle: alcohol",2 of 6
same,survivor count,"dose: 50.0 mg/kg/injection, schedule: Q01DX009 (ip), vehicle: alcohol",0 of 6
same,survivor count,"dose: 100.0 mg/kg/injection, schedule: Q01DX009 (ip), vehicle: alcohol",0 of 6
same,survivor count,"dose: 200.0 mg/kg/injection, schedule: Q01DX009 (ip), vehicle: alcohol",0 of 6
same,survivor count,"dose: 400.0 mg/kg/injection, schedule: Q01DX009 (ip), vehicle: alcohol",0 of 6
CC1(C(Cl)(Cl)Cl)C=CC(=NO)C=C1 (stereo not drawn),survivor count,[11],2 of 6
CC(=O)[O][Hg][c]1c(C)c(C)[c]([Hg][O]C(C)=O)c(C)c1C,survivor count,"dose: 100.0 mg/kg/injection, schedule: Q04DX002 (ip), vehicle: saline with Tween-80",1 of 3
same,survivor count,"dose: 200.0 mg/kg/injection, schedule: Q04DX002 (ip), vehicle: saline with Tween-80",0 of 3
same,survivor count,[1],0 of 3
ONC12CCCCC1(Cl)CCCC2 (stereo not drawn),survivor count,"dose: 75.0 mg/kg/injection, schedule: Q01DX001 (ip), vehicle: saline",0 of 6
same,survivor count,"dose: 300.0 mg/kg/injection, schedule: Q01DX001 (ip), vehicle: saline",0 of 6
BrCC1CCCCO1 (stereo not drawn),survivor count,"dose: 100.0 mg/kg/injection, schedule: Q04DX003 (ip), vehicle: saline with Tween-80",0 of 6
same,survivor count,"dose: 200.0 mg/kg/injection, schedule: Q04DX003 (ip), vehicle: saline with Tween-80",0 of 6
same,survivor count,[11],0 of 6
[Br][Hg][Br].c1ccc([PH+](CO[PH+](c2ccccc2)c2ccccc2)c2ccccc2)cc1,survivor count,"dose: 75.0 mg/kg/injection, schedule: Q01DX009 (ip), vehicle: carboxymethylcellulose (CMC)",6 of 6
same,survivor count,"dose: 150.0 mg/kg/injection, schedule: Q01DX009 (ip), vehicle: carboxymethylcellulose (CMC)",0 of 6
same,survivor count,"dose: 300.0 mg/kg/injection, schedule: Q01DX009 (ip), vehicle: carboxymethylcellulose (CMC)",0 of 6
c1ccc(CCNc2ncnc3[nH]ncc23)cc1,survivor count,"dose: 100.0 mg/kg/injection, schedule: Q01DX015 (ip), vehicle: carboxymethylcellulose (CMC)",3 of 6
O=NN(Cc1ccccc1)NC(=O)c1ccccc1,survivor count,"dose: 400.0 mg/kg/injection, schedule: Q04DX002 (ip), vehicle: gum acacia",1 of 3
Cc1nc2c(=O)n(C)c(=O)n(C)c2n1C,survivor count,[11],4 of 6
